For the assay, the target named is T1, peroxisome proliferators-activated receptor α (rat (endogenous in H9c2)) (UniProt P37230).
T1 sequence: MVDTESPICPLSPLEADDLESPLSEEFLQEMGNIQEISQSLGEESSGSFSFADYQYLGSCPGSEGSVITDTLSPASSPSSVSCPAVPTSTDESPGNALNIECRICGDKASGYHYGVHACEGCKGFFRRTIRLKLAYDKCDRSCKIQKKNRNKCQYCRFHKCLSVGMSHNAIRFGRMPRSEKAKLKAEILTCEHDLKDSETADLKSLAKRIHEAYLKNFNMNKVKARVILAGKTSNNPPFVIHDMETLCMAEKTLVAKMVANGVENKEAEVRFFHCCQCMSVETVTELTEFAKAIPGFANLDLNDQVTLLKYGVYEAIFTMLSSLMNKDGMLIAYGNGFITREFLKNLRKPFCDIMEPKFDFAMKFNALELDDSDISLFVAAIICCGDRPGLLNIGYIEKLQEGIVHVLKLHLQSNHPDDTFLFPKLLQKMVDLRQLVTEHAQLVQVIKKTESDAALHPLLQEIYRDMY
Description: co-IP; immunoprecipitation with the anti-PPARα or the anti-PGC-1β antibody in H9c2 cells, followed by Western blotting for PPARα and PGC-1β.

No constants are given. Whether binding was seen depends on the method and setting. In cells and extracts the contact can be indirect. Some results given as binding are weak or reduced against the parent protein; the word gives no strength.

B1: peroxisome proliferator-activated receptor γ coactivator 1β (protein, UniProt Q811R2 1-1010)
chain: MAGNDCGALLDEELSSFFLNYLSDTQGGESGEEQLCADLPELDLSQLDASDFDSATCFGELQWCPETSETEPSQYSPDDSEFFQIDSENEALLAALTKTLDDIPEDDVGLAAFPGLDEGDTPSCTPASPAPLSVPPSPALERLLSPVSEVDELSLLQKLLLATSSPTASSDALKDGATWSQTSLSSRSQRPCVKVDGTQDKKTPMLRSQSRPCTELHKHLTSVLPCPRGKACSPPPHPSPQLLSKEDEEVGEDCPSPWPAPASPQDSLGQDTANPNSAQVPKDDVRAMVQLIRYMHTYCLPQRKLPQRASEPIPQSCSSPLRKVPPRSRQTPKAFWTEFSILRELLAQDILCDVSKPYRLATPVYASLTPQSRTRPPKDSQASPAHSAMAEEVRITASPKSTGPRPSLRPLRLEVKRDVNKPARQKREEDEEEEEEEEEEEEKEDEEEEWGRKRPGRGLPWTKLGRKMDSSVCPVRRSRRLNPELGPWLTFTDEPLGALPSMCLATETHDLEEELGGLTDSSQGQQLPLGSQIPTLESPCESGCGDTDEDPSCPRPPSRDSPRCLMLALSQSDPLGKKSFEESLTVELCGTAGLTPPTTPPYKPMEEDPFKQDTKHSPGQDTAPSLPSPETLQLTATPGASHKLPKRHPERSELLSHLQHATTQPVSQAGQKRPFSCSFGDHDYCQVIRPEAALQRKVLRSWEPIKVHLEDLAHQGATLPVETKTPRREADQNCDPTPKDSMQLRDHEIRASLTKHFGLLETALEEEDLASCKSPEYDTVFEDSSSSSGESSFLLEEEEEEGGEEDDEGEDSGVSPPCSDHCPYQSPPSKASRQLCSRSRSSSGSSSCSSWSPATRKNFRLESRGPCSDGTPSARHAKKRREKAIGEGRVVYIRNLSGDMSSRELKKRFEVFGEIVECQVLRRSKRGQKHGFITFRCSEHAALSVRNGATLRKRNEPSFHLSYGGLRHFRWPRYTDYDPTSEESLPSSGKSKYEAMDFDSLLKEAQQSLH
On to B1, for which the binding entry is on record as “binds”.

These data come from publication PMC6329097.
